Results as given in patent publication US7105518B2, “Thiopyrane-4-ones as DNA protein kinase inhibitors” (priority 2001, dated 2006).
Some entries share one result that the patent states for a list of compounds. For at least one compound, name, drawing or mass did not settle the structure.

Protein sequences, listed by entry. Tags and fused reporters are not part of them.
UniProt P78527, whole entry: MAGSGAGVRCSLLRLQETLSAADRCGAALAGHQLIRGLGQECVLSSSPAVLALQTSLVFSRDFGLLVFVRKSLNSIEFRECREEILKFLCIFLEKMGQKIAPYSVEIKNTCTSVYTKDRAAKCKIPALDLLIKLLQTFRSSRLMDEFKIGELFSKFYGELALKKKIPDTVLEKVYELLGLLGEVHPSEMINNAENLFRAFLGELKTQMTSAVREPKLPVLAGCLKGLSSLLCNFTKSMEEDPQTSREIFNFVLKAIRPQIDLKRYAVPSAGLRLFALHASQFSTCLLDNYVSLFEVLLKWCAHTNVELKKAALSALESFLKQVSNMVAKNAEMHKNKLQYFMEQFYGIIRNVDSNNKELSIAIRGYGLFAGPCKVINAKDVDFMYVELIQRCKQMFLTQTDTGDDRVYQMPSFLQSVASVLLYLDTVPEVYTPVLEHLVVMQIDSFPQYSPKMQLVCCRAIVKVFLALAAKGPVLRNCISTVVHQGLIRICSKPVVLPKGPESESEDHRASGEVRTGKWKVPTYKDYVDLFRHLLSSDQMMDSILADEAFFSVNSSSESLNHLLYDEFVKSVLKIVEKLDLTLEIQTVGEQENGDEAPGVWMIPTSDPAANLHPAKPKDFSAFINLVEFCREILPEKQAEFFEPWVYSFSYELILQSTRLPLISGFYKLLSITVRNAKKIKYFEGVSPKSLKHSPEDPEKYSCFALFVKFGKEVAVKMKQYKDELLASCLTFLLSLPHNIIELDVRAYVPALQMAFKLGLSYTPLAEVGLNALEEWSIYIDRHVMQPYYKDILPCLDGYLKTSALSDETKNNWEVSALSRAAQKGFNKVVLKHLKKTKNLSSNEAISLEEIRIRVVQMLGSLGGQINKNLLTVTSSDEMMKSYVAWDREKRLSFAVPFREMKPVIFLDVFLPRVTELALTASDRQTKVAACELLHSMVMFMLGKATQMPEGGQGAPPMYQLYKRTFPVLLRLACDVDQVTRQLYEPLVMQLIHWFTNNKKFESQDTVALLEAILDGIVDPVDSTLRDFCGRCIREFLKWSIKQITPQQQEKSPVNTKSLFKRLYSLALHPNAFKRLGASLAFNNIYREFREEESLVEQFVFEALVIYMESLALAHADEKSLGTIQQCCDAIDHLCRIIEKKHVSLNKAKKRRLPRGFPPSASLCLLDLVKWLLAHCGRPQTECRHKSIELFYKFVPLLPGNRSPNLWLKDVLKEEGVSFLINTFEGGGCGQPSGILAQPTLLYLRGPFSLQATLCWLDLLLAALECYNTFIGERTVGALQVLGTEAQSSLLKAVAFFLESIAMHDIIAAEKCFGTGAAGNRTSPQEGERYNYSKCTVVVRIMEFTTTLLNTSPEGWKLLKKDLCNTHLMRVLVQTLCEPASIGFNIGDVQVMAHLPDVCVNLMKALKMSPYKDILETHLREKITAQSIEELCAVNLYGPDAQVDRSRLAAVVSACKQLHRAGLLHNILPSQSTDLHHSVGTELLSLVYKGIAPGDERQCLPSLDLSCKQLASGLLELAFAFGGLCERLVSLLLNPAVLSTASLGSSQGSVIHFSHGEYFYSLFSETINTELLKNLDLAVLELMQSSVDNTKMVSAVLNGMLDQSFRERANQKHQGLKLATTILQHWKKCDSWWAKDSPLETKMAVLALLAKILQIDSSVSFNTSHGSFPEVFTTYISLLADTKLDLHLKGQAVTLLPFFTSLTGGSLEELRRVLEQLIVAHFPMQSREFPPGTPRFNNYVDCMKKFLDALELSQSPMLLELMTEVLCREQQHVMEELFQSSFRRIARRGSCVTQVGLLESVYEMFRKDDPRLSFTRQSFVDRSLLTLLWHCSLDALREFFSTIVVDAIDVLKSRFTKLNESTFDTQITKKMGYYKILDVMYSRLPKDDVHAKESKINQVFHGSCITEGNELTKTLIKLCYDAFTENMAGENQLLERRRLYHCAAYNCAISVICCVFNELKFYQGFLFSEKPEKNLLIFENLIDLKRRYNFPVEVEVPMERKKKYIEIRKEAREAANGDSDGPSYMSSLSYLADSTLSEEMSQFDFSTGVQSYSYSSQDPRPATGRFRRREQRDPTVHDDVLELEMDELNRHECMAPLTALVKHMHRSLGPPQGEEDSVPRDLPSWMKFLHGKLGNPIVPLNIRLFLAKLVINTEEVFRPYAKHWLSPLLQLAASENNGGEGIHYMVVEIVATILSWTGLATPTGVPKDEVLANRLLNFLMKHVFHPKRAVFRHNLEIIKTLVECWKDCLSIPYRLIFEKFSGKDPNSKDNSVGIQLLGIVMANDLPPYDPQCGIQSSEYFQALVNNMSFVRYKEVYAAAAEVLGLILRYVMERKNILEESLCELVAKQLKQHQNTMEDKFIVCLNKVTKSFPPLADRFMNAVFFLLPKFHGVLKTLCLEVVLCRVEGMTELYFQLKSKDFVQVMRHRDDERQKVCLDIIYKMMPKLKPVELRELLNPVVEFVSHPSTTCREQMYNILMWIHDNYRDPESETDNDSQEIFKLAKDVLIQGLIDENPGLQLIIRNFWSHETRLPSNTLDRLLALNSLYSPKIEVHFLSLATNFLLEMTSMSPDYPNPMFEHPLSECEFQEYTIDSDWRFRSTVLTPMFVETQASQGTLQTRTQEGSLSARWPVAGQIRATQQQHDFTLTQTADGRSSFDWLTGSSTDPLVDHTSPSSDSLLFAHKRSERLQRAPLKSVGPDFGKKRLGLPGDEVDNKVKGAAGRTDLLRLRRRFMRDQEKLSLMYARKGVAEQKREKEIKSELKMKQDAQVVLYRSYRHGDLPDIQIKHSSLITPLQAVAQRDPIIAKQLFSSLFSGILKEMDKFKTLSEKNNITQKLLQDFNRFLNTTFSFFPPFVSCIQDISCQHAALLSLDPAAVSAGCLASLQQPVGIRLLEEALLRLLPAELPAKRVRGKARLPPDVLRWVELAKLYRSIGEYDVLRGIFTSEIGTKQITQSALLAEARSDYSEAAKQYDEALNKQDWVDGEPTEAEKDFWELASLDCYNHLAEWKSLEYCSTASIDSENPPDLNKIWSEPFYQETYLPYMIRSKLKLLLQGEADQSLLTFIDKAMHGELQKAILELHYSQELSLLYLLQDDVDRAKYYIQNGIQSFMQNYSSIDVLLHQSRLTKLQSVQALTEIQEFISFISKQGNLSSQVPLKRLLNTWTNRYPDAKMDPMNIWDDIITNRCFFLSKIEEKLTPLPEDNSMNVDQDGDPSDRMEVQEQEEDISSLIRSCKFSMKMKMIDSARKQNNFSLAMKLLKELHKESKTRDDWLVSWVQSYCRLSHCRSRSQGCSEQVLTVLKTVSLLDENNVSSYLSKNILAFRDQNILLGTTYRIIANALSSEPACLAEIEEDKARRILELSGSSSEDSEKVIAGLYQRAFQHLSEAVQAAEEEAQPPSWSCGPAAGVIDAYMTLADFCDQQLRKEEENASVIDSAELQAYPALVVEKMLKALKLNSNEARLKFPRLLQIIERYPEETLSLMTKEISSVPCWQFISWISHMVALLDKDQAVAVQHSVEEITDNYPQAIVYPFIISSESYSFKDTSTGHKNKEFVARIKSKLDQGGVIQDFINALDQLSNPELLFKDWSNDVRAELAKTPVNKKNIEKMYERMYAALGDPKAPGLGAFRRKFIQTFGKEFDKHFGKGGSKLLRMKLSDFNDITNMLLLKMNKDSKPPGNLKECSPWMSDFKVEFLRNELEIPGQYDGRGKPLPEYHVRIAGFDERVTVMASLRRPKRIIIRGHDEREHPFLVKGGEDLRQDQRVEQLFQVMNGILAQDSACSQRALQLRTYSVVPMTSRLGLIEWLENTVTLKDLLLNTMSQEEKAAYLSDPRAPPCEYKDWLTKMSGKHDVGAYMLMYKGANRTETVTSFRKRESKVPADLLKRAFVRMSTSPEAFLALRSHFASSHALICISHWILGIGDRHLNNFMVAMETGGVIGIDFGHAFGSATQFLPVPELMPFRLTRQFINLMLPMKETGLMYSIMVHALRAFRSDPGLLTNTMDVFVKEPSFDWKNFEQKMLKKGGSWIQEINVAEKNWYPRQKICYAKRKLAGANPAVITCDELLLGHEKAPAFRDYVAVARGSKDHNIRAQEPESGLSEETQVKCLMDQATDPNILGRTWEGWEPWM

Target: T1, Mammalian DNA-PK, isolated from Hela cell nuclear extract (Homo sapiens, UniProt P78527)
T1 construct: Mammalian DNA-PK, isolated from Hela cell nuclear extract; endogenous in cells; host or cells: HeLa cell nuclear extract
Assay: DNA-PK inhibition assay (33P-ATP, phosphocellulose filter, scintillation counting)
Assay type: biochemical
Conditions: single concentration 1 μM
Experimental: In order to assess the inhibitory action of the compounds against DNA-PK in vitro, the following assay was used.
The total assay volume per well was 40 μl.
After 10 minutes of incubation at 30° C. the reactions were initiated by the addition of Na-ATP (50 μM final), ^33P-γATP and a 30mer double stranded DNA oligonucleotide (10 ng/μl) in a volume of 10 μl. Designated positive and negative reaction wells were done in combination with compound wells (unknowns) in order to calculate % enzyme activities. The plates were then shaken for 2 minutes and incubated at 30° C. for 45 minutes.
Following the incubation, the reactions were quenched by the addition of 50 μl 30% acetic acid to each well. The plates were then shaken for 5 minutes and the contents of each plate (80 μl from each well) transferred over to a 96 well Polyfiltronics filtration plate, containing P81-phosphocellulose membrane (TRADE MARK)(Whatman, UK). The solutions were vacuum pumped through the membrane and each well membrane washed four times using 300 μl of 15% acetic acid. […]
The plates were transferred to a TopCount NXT (TRADE MARK) (Packard, UK) for scintillation counting. Values recorded are counts per minute (cpm) following a 1 minute counting time for each well.
The enzyme activity for each compound is then calculated using the following equation: […]

| SMILES | inhibition of DNA-PK at 1 μM |
| --- | --- |
| O=Cc1sccc1-c1ccc(-c2cc(=O)cc(N3CCOCC3)s2)cc1 [Compound 60] | at least 10% |
| O=c1cc(-c2cccc(-c3ccsc3)c2)sc(N2CCOCC2)c1 [Compound 65] | at least 10% |
